# Experimental data reported in PMC13065327.
# T1: Dsn1-6His-3FLAG (S. cerevisiae) (UniProt P40568)
# T1 sequence: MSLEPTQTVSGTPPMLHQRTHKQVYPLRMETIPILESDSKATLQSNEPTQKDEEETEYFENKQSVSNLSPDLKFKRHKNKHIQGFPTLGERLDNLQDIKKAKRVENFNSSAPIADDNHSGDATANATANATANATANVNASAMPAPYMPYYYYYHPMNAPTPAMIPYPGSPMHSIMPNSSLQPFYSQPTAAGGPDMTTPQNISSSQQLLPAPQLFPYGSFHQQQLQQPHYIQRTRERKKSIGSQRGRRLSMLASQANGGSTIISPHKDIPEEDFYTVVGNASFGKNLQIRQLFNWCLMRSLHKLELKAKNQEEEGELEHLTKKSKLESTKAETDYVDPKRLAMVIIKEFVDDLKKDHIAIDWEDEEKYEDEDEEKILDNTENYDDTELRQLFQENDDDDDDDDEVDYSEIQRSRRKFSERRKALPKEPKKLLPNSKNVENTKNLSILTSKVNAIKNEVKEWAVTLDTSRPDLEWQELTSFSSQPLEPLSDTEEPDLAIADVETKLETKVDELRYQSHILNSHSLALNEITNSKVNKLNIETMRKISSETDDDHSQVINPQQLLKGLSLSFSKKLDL
# B1: Red1 (protein, UniProt P14291 1-827)
# chain: MEGLKKKIFGVCLKNDLAQTRNETKGIHYGLMTLETSKQLQEFLHLLVIKREVIQNFELLFHIINVAVKITDSNLPSDDIWHFILKLRFSSEINIDEDSKVLNYLLETGIAMENPVSWKCLAVISSILSSVPQSKKIITNLIETEHAKKIGQLFDNIQDLQQGNFLVEILSNCFKKSASNSKKVEKIPQLWQSRSKNKFFFENEFYPFSSKNGSLQTCQFLCNNFMSTLSFTGILRQVSYSGSETLKNLRIFKKKDDENSYFIQCIYNKIYLWLDEKAPLEFERKKIRITKNLKNKIQIKLRQPFHECVRTTADKTALLFNKTKGFQLEFEDEKLGETFFHNVNNIPKISEVQNFLVLDYIEEEPENEGEEEEQIGRADEQKEDEEEESLDELSTPMVYPIKSSIPHNHNEKVQLVTPDRSVSIRSDEWDLKSNTEDEEGNVLADLKISSTKETKRQTDYVHIDSEDQSPVVSAQMRKMRRESTKTLEILRQEFKDKDVQNKEDQSEQIQNPFVNTSSLVVGKSCLVNPKEKPNIDQTVVGITELKSNSSIKKRDINILDTIFGQPPSKKQKQFHKKEKKKQQKKLTNFKPIIDVPSQDKRNLRSNAPTKPKSIKVSKLRTDKKVTGEKSSPETAAEKVDDQTVRSNDEQAMSRATKEKCFPDVNEGKEITKDDAKVSLESKKNNETFVDSSVVEKHTPPDKDCNNCNITDILESTTVIDLQSPHGLSAPGQNTFTNKLQEQIYSSINHFSNELVRKISIINQELNKKILKELSEKYQKLFSELQDNFQNDTNEMLKFMGEIKDMMNLPEDQLVHAIRTRKFDNNKR
# B2: Zip1 (protein, UniProt P31111 1-875)
# chain: MSNFFRDSSMGFKPRPNIFAKLRVRDVDSDSSANTVVENSSNCLDVGSSIEGDDTFKKPHKTSTEQELITSMSLSQRNHGYSDDMEIGSPKKTTSTDQYNRILKNDVAAIENDTDEDFEITEVREVSEGVAKETKESHGDPNDSETTLKDSKMHEYTMTNGKAPLHTSINNSSTSSNDVLLEAFTNTQRICSNLKQELQKQQQDNAKLKVRLQSYASNSDKINEKVGKYKSCLETLQERIATLTSHKNNQETKLKDLRQNHQLYQRRISGFKTSIENLNKTINDLGKNKKEADAELMKKGKEIEYLKRELDDCSGQLSEEKIKNSSLIQEMGKNREEMIKSIENFFSEDKAHHLLQFNKFEERVHDLFEKKLQKHFDVAKDTLNVGLRNTTVELSSNTETMLKQQYEDIKENLEQKMSSSKDEMAKTINELSVTQKGLIMGVQEELLTSSGNIQTALVSEMNNTRQELLDDASQTAKNYASLENLVKAYKAEIVQSNEYEERIKHLESERSTLSSQKNQIISSLGTKEAQYEDLVKKLEAKNIEISQISGKEQSLTEKNENLSNELKKVQDQLEKLNNLNITTKSNYENKISSQNEIVKALVSENDTLKQRIQQLVEIKENEQKDHTTKLEAFQKNNEQLQKLNVEVVQLKAHELELEEQNRHLKNCLEKKETGVEESLSDVKTLKQQVIVLKSEKQDITAEKLELQDNLESLEEVTKNLQQKVQSQKRELEQKIKELEEIKNHKRNEPSKKGTQNFTKPSDSPKKNATTSNLFPNNSAAIHSPMKKCPKVDHISKSRINSSKETSKFNDEFDLSSSSNDDLELTNPSPIQIKPVRGKIKKGSNCMKPPISSRKKLLLVEDEDQSLKISKKRRRK
# B3: Smc1 (protein, UniProt P32908 1-1225)
# chain: MGRLVGLELSNFKSYRGVTKVGFGESNFTSIIGPNGSGKSNMMDAISFVLGVRSNHLRSNILKDLIYRGVLNDENSDDYDNEGAASSNPQSAYVKAFYQKGNKLVELMRIISRNGDTSYKIDGKTVSYKDYSIFLENENILIKAKNFLVFQGDVEQIAAQSPVELSRMFEEVSGSIQYKKEYEELKEKIEKLSKSATESIKNRRRIHGELKTYKEGINKNEEYRKQLDKKNELQKFQALWQLYHLEQQKEELTDKLSALNSEISSLKGKINNEMKSLQRSKSSFVKESAVISKQKSKLDYIFKDKEKLVSDLRLIKVPQQAAGKRISHIEKRIESLQKDLQRQKTYVERFETQLKVVTRSKEAFEEEIKQSARNYDKFKLNENDLKTYNCLHEKYLTEGGSILEEKIAVLNNDKREIQEELERFNKRADISKRRITEELSITGEKLDTQLNDLRVSLNEKNALHTERLHELKKLQSDIESANNQEYDLNFKLRETLVKIDDLSANQRETMKERKLRENIAMLKRFFPGVKGLVHDLCHPKKEKYGLAVSTILGKNFDSVIVENLTVAQECIAFLKKQRAGTASFIPLDTIETELPTLSLPDSQDYILSINAIDYEPEYEKAMQYVCGDSIICNTLNIAKDLKWKKGIRGKLVTIEGALIHKAGLMTGGISGDANNRWDKEEYQSLMSLKDKLLIQIDELSNGQRSNSIRAREVENSVSLLNSDIANLRTQVTQQKRSLDENRLEIKYHNDLIEKEIQPKITELKKKLDDLENTKDNLVKEKEALQNNIFKEFTSKIGFTIKEYENHSGELMRQQSKELQQLQKQILTVENKLQFETDRLSTTQRRYEKAQKDLENAQVEMKSLEEQEYAIEMKIGSIESKLEEHKNHLDELQKKFVTKQSELNSSEDILEDMNSNLQVLKRERDGIKEDIEKFDLERVTALKNCKISNINIPISSETTIDDLPISSTDNEAITISNSIDINYKGLPKKYKENNTDSARKELEQKIHEVEEILNELQPNARALERYDEAEGRFEVINNETEQLKAEEKKILNQFLKIKKKRKELFEKTFDYVSDHLDAIYRELTKNPNSNVELAGGNASLTIEDEDEPFNAGIKYHATPPLKRFKDMEYLSGGEKTVAALALLFAINSYQPSPFFVLDEVDAALDITNVQRIAAYIRRHRNPDLQFIVISLKNTMFEKSDALVGVYRQQQENSSKIITLDLSNYAE
# B4: Casein kinase 1 (CK1/Hrr25) (enzyme, UniProt P29295 1-494)
# chain: MDLRVGRKFRIGRKIGSGSFGDIYHGTNLISGEEVAIKLESIRSRHPQLDYESRVYRYLSGGVGIPFIRWFGREGEYNAMVIDLLGPSLEDLFNYCHRRFSFKTVIMLALQMFCRIQYIHGRSFIHRDIKPDNFLMGVGRRGSTVHVIDFGLSKKYRDFNTHRHIPYRENKSLTGTARYASVNTHLGIEQSRRDDLESLGYVLIYFCKGSLPWQGLKATTKKQKYDRIMEKKLNVSVETLCSGLPLEFQEYMAYCKNLKFDEKPDYLFLARLFKDLSIKLEYHNDHLFDWTMLRYTKAMVEKQRDLLIEKGDLNANSNAASASNSTDNKSETFNKIKLLAMKKFPTHFHYYKNEDKHNPSPEEIKQQTILNNNAASSLPEELLNALDKGMENLRQQQPQQQVQSSQPQPQPQQLQQQPNGQRPNYYPEPLLQQQQRDSQEQQQQVPMATTRATQYPPQINSNNFNTNQASVPPQMRSNPQQPPQDKPAGQSIWL
# B5: shugoshin (Sgo1) (protein, UniProt Q08490 1-590)
# chain: MPKRKIAPNKESSRRTVSHDDLTPQIQEFQNLMDLESQKVENIRQSYSRQNSLLAKDNSILKIKVNSLEKKISQLVQENVTLRSKTSISEAIYRERLSNQLQVIENGIIQRFDEIFYMFENVRKNENLPSSSLRTMLKRTSSRSRSCSLSSPTYSKSYTRLSNHENNLSHESSFNKDDGPDLEPKAKKRKSSRRQSMFVSTSLEPEDETGENEPMMENSSVEVPAESHESAQVEETIDALNPEEENSDSVSNFTNSIIEYSIPEENPTEPEHSSSKLEIFNDSTNMLSTVPSNPLPLPLPGPSATLPTTTSDASTVYPSSSSSTNSHPKTKIKHSMKPPRIELKKKVIDEVMPVSNMSSNSEISFTRTRRTRGKAVDYTLPSLRAKMRRPSEKLVDATTVIDIHDLQVSKRNRETSHKRKSLSQDSIPDEPQLREVVVSKDYGTPKGKKTEDEIHEDTAHLMTTSNNNSNNKNEKKLTSNNSPKKSSPLLDITNKSENKKKSTRTKKLFKNAIVNNLSDENSTTRPSKSSKGTSNNNNNYNNFDNNNSNINNVNNKSVSFRLNEDDLAVFDLFGNGKAVKHQPKTYRTKK
# B6: Fin1 (protein, UniProt Q03898 1-291)
# chain: MSNKSNRRSLRDIGNTIGRNNIPSDKDNVFVRLSMSPLRTTSQKEFLKPPMRISPNKTDGMKHSIQVTPRRIMSPECLKGYVSKETQSLDRPQFKNSNKNVKIQNSDHITNIIFPTSPTKLTFSNENKIGGDGSLTRIRARFKNGLMSPERIQQQQQQHILPSDAKSNTDLCSNTELKDAPFENDLPRAKLKGKNLLVELKKEEEDVGNGIESLTKSNTKLNSMLANEGKIHKASFQKSVKFKLPDNIVTEETVELKEIKDLLLQMLRRQREIESRLSNIELQLTEIPKHK
# Biological target: T1, Dsn1-6His-3FLAG (S. cerevisiae)
# Experiment: affinity purification with mass spectrometry; anti-FLAG antibody on Protein G Dynabeads, Dsn1-6His-3FLAG from lysates of SK1 cells at mitotic metaphase, meiotic prophase, metaphase I and metaphase II (SynSAC, 250 uM ABA); BH0.15 buffer (150 mM KCl, 25 mM HEPES-KOH pH 8.0, 2 mM MgCl2, 0.1% NP-40), 3 hr at 4 C; DIA-MS of eluates, 95% phospho-enriched; no tag control
row,Binder,binding
1,B1,binds
2,B2,binds
3,B3,binds
4,B4,binds
5,B5,binds
6,B6,binds

# These are yes or no findings as the source states them, for the method shown. Binding seen in cells or lysates may run through a third protein. Here binding means that the protein was enriched with, or labelled near, the bait; the list need not be complete. Sequences can lack the tags named with a protein.
